The values below come from article PMC4090575, “An In Vivo Microdialysis Study of FLZ Penetration through the Blood-Brain Barrier in Normal and 6-Hydroxydopamine Induced Parkinson's Disease Model Rats” (BioMed Research International, 2014).

Structures are written as SMILES.

The nature of data set [1]: In vitro nonspecific binding to microdialysis tubing and in vitro probe recovery.
A short description of data set [2]: In vivo microdialysis probe recovery by retrodialysis. Further details: species or system rat. The following applies: ringer's solution with 4% BSA, 1 μL/min.

`COc1ccc(OC)c(C(=Cc2ccc(O)c(OC)c2)C(=O)NCCc2ccc(O)cc2)c1` [FLZ, N-[2-(4-hydroxy-phenyl)-ethyl]-2-(2,5-dimethoxy-phenyl)-3-(3-methoxy-4-hydroxy-phenyl)-acrylamide]: the “FLZ bound to the tubing (nonspecific binding)” value is listed as “less than 15%” in data set [1] (after addition of BSA (0.5%, 2%, or 4%, w/v) to the perfusion fluid) and “More than 90%” in data set [1] (perfused with ringer's solution containing FLZ, no BSA). Moreover, in data set [1] (pilot conditions, ringer's solution without BSA), the “in vitro recovery of FLZ” value is “less than 1%”. In addition, the “relative in vivo recovery of FLZ, brain microdialysis probe” value in data set [2] (20 ng/mL perfusate) was 13.2%. Further, in data set [2] (200 ng/mL perfusate), the “relative in vivo recovery of FLZ, blood microdialysis probe” value turned out to be 29.0%.
